No constants are given. Whether binding was seen depends on the method and setting. Binding seen in cells or lysates may run through a third protein. Here binding means that the protein was enriched with, or labelled near, the bait; the list need not be complete. Tags and fused reporters may be left off the sequences shown. Blank lines part the entries; values can stand above or below the molecule they belong to.
Biological target: T1, Mmr1-HA (S. cerevisiae) (UniProt Q06324)
T1 sequence: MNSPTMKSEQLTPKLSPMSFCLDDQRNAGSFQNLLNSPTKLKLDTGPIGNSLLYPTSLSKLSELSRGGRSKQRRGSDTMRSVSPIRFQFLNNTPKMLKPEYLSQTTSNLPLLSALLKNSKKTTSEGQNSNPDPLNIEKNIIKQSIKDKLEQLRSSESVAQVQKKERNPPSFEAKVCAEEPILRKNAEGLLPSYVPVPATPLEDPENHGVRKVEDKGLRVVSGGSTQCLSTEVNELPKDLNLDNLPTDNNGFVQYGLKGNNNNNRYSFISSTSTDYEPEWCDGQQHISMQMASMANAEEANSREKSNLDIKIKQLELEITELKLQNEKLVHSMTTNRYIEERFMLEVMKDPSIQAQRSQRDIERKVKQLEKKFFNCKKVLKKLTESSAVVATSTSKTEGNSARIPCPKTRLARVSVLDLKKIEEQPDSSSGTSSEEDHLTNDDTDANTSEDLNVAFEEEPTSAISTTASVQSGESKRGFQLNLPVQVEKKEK
Assay: affinity purification with mass spectrometry; Mmr1-HA immunoprecipitated with anti-HA (12CA5) and Dynabeads Protein G from lysate of cim3-1 cells grown at 25 °C then 2 h at 37 °C; 40 mM Tris-HCl pH 7.5, 150 mM NaCl, 1 mM DTT, 0.5% Triton X-100; co-precipitated proteins detected by LC-MS/MS

The chains behind the UniProt entries cited, without tags or fusion partners.
UniProt P39940: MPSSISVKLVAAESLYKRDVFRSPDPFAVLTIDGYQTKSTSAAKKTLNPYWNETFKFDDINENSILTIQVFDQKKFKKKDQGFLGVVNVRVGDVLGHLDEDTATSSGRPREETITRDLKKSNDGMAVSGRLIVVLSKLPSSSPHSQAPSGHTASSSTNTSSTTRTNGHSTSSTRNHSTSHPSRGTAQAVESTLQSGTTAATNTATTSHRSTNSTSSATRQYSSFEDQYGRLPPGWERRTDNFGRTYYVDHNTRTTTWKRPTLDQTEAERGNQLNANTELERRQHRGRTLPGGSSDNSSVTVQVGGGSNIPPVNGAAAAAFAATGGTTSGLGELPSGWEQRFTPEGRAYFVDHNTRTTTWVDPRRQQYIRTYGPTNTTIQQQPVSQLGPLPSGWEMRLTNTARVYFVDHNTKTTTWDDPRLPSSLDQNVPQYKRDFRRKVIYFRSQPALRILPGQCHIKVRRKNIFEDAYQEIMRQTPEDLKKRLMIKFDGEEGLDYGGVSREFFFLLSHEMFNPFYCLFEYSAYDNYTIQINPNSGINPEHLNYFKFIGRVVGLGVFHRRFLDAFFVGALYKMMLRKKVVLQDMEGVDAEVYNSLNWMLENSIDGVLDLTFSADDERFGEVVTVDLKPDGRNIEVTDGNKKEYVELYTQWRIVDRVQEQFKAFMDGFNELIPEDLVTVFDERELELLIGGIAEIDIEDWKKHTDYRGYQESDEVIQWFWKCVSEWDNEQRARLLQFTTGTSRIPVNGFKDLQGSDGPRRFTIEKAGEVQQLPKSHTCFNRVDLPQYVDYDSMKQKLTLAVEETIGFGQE
UniProt P19812: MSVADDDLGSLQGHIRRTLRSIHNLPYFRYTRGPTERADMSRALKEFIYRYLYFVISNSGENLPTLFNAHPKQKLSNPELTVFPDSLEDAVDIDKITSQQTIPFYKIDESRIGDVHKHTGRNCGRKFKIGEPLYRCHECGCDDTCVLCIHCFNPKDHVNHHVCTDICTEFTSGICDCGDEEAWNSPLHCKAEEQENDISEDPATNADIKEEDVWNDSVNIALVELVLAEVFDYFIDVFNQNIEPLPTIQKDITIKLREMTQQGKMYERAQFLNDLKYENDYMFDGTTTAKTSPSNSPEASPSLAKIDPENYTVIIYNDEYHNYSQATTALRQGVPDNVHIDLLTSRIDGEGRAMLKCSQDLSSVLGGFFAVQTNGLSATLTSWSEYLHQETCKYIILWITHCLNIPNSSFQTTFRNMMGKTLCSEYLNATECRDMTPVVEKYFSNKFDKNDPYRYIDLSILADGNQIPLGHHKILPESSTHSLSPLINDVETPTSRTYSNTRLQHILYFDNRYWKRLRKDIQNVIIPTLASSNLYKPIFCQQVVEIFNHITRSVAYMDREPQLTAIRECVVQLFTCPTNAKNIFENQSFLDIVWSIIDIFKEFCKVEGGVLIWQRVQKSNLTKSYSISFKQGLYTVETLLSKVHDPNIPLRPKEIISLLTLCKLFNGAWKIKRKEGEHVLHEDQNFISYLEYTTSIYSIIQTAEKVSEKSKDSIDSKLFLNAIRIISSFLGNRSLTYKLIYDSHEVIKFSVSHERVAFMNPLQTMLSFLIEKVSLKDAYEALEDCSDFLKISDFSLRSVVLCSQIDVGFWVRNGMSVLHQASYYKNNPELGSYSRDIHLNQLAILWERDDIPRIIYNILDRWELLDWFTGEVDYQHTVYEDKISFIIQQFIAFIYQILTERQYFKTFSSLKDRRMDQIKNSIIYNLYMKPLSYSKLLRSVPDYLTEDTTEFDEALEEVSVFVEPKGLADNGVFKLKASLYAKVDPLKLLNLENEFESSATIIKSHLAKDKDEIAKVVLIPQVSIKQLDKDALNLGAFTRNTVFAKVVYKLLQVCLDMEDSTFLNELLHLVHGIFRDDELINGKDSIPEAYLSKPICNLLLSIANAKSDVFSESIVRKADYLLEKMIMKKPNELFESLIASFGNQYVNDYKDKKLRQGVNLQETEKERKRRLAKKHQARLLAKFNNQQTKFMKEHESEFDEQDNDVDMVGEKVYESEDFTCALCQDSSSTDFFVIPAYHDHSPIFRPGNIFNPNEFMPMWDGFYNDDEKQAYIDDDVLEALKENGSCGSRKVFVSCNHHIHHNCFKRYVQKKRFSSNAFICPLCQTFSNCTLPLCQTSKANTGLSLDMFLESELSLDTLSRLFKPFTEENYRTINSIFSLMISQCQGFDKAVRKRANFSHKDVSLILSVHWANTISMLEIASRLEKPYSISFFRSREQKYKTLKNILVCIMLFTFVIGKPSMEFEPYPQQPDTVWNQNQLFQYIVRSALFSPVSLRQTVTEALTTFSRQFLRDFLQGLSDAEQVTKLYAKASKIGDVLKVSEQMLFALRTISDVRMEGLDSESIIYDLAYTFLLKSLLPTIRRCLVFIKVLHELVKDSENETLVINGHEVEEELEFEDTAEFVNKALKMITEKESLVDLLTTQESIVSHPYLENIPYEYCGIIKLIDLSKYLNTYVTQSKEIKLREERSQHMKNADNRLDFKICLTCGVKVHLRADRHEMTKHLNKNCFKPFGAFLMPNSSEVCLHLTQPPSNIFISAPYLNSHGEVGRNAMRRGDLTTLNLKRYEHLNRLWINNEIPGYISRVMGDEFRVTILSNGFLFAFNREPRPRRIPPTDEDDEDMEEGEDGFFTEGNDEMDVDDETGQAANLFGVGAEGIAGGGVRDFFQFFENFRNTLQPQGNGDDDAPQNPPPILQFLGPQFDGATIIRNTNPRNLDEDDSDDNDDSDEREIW
UniProt Q07963: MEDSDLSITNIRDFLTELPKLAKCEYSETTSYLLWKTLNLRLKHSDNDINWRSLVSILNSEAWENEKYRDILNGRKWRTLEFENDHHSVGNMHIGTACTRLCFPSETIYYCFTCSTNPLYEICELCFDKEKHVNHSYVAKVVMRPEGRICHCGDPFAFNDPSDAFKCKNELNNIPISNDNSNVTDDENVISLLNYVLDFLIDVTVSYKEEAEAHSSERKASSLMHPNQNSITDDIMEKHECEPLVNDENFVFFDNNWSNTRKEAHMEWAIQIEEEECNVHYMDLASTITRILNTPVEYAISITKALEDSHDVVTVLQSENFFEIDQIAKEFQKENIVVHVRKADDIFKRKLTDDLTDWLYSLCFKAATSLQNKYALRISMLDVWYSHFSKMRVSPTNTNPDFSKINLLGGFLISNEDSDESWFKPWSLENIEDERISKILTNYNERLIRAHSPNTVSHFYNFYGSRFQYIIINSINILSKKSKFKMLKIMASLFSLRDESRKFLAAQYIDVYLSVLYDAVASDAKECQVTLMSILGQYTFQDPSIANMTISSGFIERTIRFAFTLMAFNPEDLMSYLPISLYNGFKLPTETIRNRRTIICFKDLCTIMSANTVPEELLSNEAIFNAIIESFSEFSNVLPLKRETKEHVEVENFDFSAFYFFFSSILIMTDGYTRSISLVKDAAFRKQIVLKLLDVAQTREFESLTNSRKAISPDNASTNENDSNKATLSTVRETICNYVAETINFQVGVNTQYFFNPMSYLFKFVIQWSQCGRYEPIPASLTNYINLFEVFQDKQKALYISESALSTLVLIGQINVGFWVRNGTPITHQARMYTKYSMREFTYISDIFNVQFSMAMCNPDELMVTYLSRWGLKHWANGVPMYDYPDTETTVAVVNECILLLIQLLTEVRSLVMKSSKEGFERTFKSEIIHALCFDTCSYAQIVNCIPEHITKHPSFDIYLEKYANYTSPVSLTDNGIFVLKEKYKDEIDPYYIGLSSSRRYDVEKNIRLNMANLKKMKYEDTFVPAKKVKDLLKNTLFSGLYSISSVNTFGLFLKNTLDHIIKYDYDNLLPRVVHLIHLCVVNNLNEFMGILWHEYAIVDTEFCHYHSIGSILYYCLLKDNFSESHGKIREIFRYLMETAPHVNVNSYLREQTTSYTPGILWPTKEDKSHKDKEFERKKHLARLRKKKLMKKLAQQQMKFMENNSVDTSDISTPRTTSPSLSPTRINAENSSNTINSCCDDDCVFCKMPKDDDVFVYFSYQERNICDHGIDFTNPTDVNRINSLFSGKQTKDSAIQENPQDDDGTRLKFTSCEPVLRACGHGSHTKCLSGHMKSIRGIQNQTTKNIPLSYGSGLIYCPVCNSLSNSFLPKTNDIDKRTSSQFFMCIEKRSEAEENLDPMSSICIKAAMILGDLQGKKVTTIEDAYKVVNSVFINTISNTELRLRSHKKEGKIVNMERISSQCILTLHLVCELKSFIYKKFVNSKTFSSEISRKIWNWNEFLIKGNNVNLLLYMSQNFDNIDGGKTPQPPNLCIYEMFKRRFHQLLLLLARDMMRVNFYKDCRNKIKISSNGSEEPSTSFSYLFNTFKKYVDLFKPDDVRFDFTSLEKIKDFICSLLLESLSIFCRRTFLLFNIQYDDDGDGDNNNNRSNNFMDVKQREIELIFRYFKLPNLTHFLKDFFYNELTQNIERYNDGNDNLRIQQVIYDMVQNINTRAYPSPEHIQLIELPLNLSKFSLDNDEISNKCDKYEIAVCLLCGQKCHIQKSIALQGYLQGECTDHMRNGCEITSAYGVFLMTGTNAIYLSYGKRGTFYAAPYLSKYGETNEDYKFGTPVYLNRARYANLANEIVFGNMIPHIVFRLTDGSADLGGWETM
UniProt P12868: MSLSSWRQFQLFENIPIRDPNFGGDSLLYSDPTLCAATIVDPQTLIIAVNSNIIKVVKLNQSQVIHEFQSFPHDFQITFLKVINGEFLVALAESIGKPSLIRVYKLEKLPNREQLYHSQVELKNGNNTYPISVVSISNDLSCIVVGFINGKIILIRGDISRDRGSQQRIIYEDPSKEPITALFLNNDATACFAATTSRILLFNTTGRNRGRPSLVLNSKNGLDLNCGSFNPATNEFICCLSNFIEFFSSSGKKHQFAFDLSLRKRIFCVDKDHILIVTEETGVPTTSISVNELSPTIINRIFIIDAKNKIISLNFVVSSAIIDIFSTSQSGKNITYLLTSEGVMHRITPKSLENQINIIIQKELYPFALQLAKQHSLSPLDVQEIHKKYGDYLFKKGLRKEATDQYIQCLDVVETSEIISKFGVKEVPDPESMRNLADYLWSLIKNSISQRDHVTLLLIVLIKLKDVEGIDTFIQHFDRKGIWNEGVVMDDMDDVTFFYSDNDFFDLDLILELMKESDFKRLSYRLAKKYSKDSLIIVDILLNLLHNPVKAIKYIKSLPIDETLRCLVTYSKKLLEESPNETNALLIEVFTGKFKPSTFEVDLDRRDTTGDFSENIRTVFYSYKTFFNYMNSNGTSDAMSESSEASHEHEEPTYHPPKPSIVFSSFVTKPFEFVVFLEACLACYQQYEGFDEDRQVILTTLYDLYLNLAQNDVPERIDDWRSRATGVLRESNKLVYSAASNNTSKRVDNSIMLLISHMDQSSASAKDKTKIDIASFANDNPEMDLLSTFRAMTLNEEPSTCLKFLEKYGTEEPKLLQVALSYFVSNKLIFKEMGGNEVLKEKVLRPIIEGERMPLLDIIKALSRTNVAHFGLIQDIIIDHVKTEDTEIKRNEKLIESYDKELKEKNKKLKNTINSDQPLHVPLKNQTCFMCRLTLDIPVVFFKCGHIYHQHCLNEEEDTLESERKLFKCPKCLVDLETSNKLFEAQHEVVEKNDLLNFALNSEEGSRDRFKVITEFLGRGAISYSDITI

Molecule: Rsp5 (from UniProt P39940 1-809)
binding: binds

Molecule: Ubr1 (from UniProt P19812 1-1950)
binding: binds

B1: Dma2 (protein, UniProt P53924 1-522)
chain: MYTPIPANTPAPTAPTSSMTSNSSSASNANTTSSSGINPRNRASGTPSNERARPASGISSFLNTFGIRQNSQTASSSAAPDQRLFGTTPSNSHMSVAMESIDTAPQQQEPRLHHPIQMPLSAQFHVHRNYQLPISISLTAPTTTDHQQSSAHNFEGNNVGNVQESLNQRQPNGTNNTTTSIISMAPAATTRNIVGGADGSTIVNNSQEMYKNLRHLIYAANQPNGTEILHLDLPATSAEESNNMFNVDEVTLKQRKDKHGLFSIRLTPFIDSSSTTNQGLFFEPIIRKAGPGSQLVIGRYTERVRDAISKIPEQYHPVVFKSKVVSRTHGCFKVDSQGNWYIKDVKSSSGTFLNHQRLSPASSLSKDTPLRDGDILQLGMDFRGGTEEIYRCVRMRIELNRSWKLKANSFNKEALQRLQNLQKLTTGIEEEDCSICLCKIKPCQAIFISPCAHSWHFRCVRRLVMLSYPQFVCPNCRSSCDLEASFESSDEEDESDVESEGDQLVDQLSVLMETSKDVDSHP
binding: binds

B2: Grr1 (protein, UniProt P24814 1-1151)
chain: MDQDNNNHNDSNRLHPPDIHPNLGPQLWLNSSGDFDDNNNNNNNNNNNNSTRPQMPSRTRETATSERNASEVRDATLNNIFRFDSIQRETLLPTNNGQPLNQNFSLTFQPQQQTNALNGIDINTVNTNLMNGVNVQIDQLNRLLPNLPEEERKQIHEFKLIVGKKIQEFLVVIEKRRKKILNEIELDNLKLKELRIDNSPQAISYLHKLQRMRLRALETENMEIRNLRLKILTIIEEYKKSLYAYCHSKLRGQQVENPTDNFIIWINSIDTTESSDLKEGLQDLSRYSRQFINNVLSNPSNQNICTSVTRRSPVFALNMLPSEILHLILDKLNQKYDIVKFLTVSKLWAEIIVKILYYRPHINKKSQLDLFLRTMKLTSEETVFNYRLMIKRLNFSFVGDYMHDTELNYFVGCKNLERLTLVFCKHITSVPISAVLRGCKFLQSVDITGIRDVSDDVFDTLATYCPRVQGFYVPQARNVTFDSLRNFIVHSPMLKRIKITANNNMNDELVELLANKCPLLVEVDITLSPNVTDSSLLKLLTRLVQLREFRITHNTNITDNLFQELSKVVDDMPSLRLIDLSGCENITDKTIESIVNLAPKLRNVFLGKCSRITDASLFQLSKLGKNLQTVHFGHCFNITDNGVRALFHSCTRIQYVDFACCTNLTNRTLYELADLPKLKRIGLVKCTQMTDEGLLNMVSLRGRNDTLERVHLSYCSNLTIYPIYELLMSCPRLSHLSLTAVPSFLRPDITMYCRPAPSDFSENQRQIFCVFSGKGVHKLRHYLVNLTSPAFGPHVDVNDVLTKYIRSKNLIFNGETLEDALRRIITDLNQDSAAIIAATGLNQINGLNNDFLFQNINFERIDEVFSWYLNTFDGIRMSSEEVNSLLLQVNKTFCEDPFSDVDDDQDYVVAPGVNREINSEMCHIVRKFHELNDHIDDFEVNVASLVRVQFQFTGFLLHEMTQTYMQMIELNRQICLVQKTVQESGNIDYQKGLLIWRLLFIDKFIMVVQKYKLSTVVLRLYLKDNITLLTRQRELLIAHQRSAWNNNNDNDANRNANNIVNIVSDAGANDTSNNETNNGNDDNETENPNFWRQFGNRMQISPDQMRNLQMGLRNQNMVRNNNNNTIDESMPDTAIDSQMDEASGTPDEDML
binding: binds

The remaining lines, values ahead:

binding: binds
Molecule: Ubr2 (from UniProt Q07963 1-1872)

binding: binds
Molecule: Pep5 (from UniProt P12868 1-1029)

binding: binds
B3: Hul5 (protein, UniProt P53119 1-910)
chain: MLNFTGQTRRRNVNLGNRTRNSKKDLLEKAKRERERRAQDKLKEDASKTIQKSIRRHFSNVRLFKNTFTSSQLVHMIPAYGGKLIYYISQYDLQQLLKLSHNFLSSYPNSLGNRQLLSLLKLYQDDALVAETLSDLNMDCPTVDEFLDSLSVYLCRASFLSYSSASKLADVIEAWEVMHSSASISIFSISIGSYEKRPFALQFYCILAERNLLPQLINTNPILWDNMAKTYSHCSKGGQKNIAKLLIPNFNNHIAPSVLRSDNDYVLKFYEKAFIDEVIATTANYVSDEDHVKNLMCYIASSPNQSCKNSVLITLLSNKDFVRRLSWEFFHTKFNASKTEAHPLFSVLAQLIDMHLLISTDRELLDYNSVIPIEELKKFTSTLKDFTFRQYWELPKSERNPMLKEAVPLLSKVYERDSRLHFLSTENNPTYWENSEKQFLNLRFYEELQEYEDLYREHLEEESDEDMEKEIDLDKERPPLKSLLLNKMKKRLKSSLRFRKLEILLELPFFIPFEERVDLFYMFIALDKKRLSLDDDHNLINMFTPWASTGMRKQSAIISRDNVLEDAFNAFNSIGERFKASLDVTFINEFGEEAGIDGGGITKEFLTTVSDEGFKDPKHELFRTNDRYELYPSVVYDATKLKYIWFLGKVVGKCLYEHVLIDVSFADFFLKKLLNYSNGFLSSFSDLGSYDSVLYNNLIKLLNMTTDEIKSLDLTFEIDEPESSAKVVDLIPNGSKTYVTKDNVLLYVTKVTDYKLNKRCFKPVSAFHGGLSVIIAPHWMEMFNSIELQMLISGERDNIDLDDLKSNTEYGGYKEEDQTIVDFWEVLNEFKFEEKLNFLKFVTSVPQAPLQGFKALDPKFGIRNAGTEKYRLPTASTCVNLLKLPDYRNKTILREKLLYAINSGARFDLS

binding: binds
B4: Dma1 (protein, UniProt P38823 1-416)
chain: MSTNTVPSSPPNQTPPAASGIATSHDHTKFNNPIRLPISISLTINDTPNNNSNNNSVSNGLGILPSRTATSLVVANNGSANGNVGATAAAAATVETNTAPAVNTTKSIRHFIYPPNQVNQTEFSLDIHLPPNTSLPERIDQSTLKRRMDKHGLFSIRLTPFIDTSSTSVANQGLFFDPIIRTAGAGSQIIIGRYTERVREAISKIPDQYHPVVFKSKVISRTHGCFKVDDQGNWFLKDVKSSSGTFLNHQRLSSASTTSKDYLLHDGDIIQLGMDFRGGTEEIYRCVKMKIELNKSWKLKANAFNKEALSRIKNLQKLTTGLEQEDCSICLNKIKPCQAIFISPCAHSWHFHCVRRLVIMNYPQFMCPNCRTNCDLETTLESESESEFENEDEDEPDIEMDIDMEINNNLGVRLVD
